Reference: US20140370521A1, “IDENTIFICATION OF TWO NOVEL BIOMARKERS FOR NIEMANN-PICK DISEASE TYPE C” (The USA , as Represented by the Secretary, Department of …, priority 2011, published 2014)

B1: Serpina9 (protein, UniProt Q9D7D2 26-418, looked up)
Serpin A9: NPYNQESSHLPSMKKNPASQVSPSNTRFSFLLYQRLAQENPGQNILFSPVSISTSLAMLSLGARSATKTQILRTLGFNFTWVSEPTIHMGFEYLVRSLNKCHQGRELRMGSVLFIRKELQLQATFLDRVKKLYGAKVFSEDFSNAATAQAQINSYVEKETKGKVVDVIQDLDSQTAMVLVNHIFFKANWTQPFSTANTNKSFPFLLSKGTTVHVPMMHQTESFAFGVDKELGCSILQMDYRGDAVAFFVLPGKGKMRQLEKSLSARRLRKWSRSLQKRWIKVFIPKFSISASYNLETILPKMGIRDAFNSNADFSGITKTHFLQVSKAAHKAVLDVSEEGTEAAAATTTKLIVRSRDTPSSIIAFKEPFLILLLDKNTESVLFLGKVENPRKM
B2: Vegfb (protein, UniProt P49766 22-207, looked up)
Vascular endothelial growth …: PVSQFDGPSHQKKVVPWIDVYARATCQPREVVVPLSMELMGNVVKQLVPSCVTVQRCGGCCPDDGLECVPTGQHQVRMQILMIQYPSSQLGEMSLEEHSQCECRPKKKESAVKPDRVAIPHHRPQPRSVPGWDSTPGASSPADIIHPTPAPGSSARLAPSAVNALTPGPAAAAADAAASSIAKGGA
B3: Ly86 (protein, UniProt O88188 20-162, looked up)
Lymphocyte antigen 86: DHGSENGWPKHTACNSGGLEVVYQSCDPLQDFGLSIDQCSKQIQSNLNIRFGIILRQDIRKLFLDITLMAKGSSILNYSYPLCEEDQPKFSFCGRRKGEQIYYAGPVNNPGLDVPQGEYQLLLELYNENRATVACANATVTSS
B4: Pdgfb (protein, UniProt P31240 82-190, looked up)
Platelet-derived growth …: SLGSLAAAEPAVIAECKTRTEVFQISRNLIDRTNANFLVWPPCVEVQRCSGCCNNRNVQCRASQVQMRPVQVRKIEIVRKKPIFKKATVTLEDHLACKCETIVTPRPVT
B5: Pla2g7 (protein, UniProt Q60963 22-440, looked up)
Platelet-activating factor …: FHWQDTSSFDFRPSVMFHKLQSVMSAAGSGHSKIPKGNGSYPVGCTDLMFGYGNESVFVRLYYPAQDQGRLDTVWIPNKEYFLGLSIFLGTPSIVGNILHLLYGSLTTPASWNSPLRTGEKYPLIVFSHGLGAFRTIYSAIGIGLASNGFIVATVEHRDRSASATYFFEDQVAAKVENRSWLYLRKVKQEESESVRKEQVQQRAIECSRALSAILDIEHGDPKENVLGSAFDMKQLKDAIDETKIALMGHSFGGATVLQALSEDQRFRCGVALDPWMYPVNEELYSRTLQPLLFINSAKFQTPKDIAKMKKFYQPDKERKMITIKGSVHQNFDDFTFVTGKIIGNKLTLKGEIDSRVAIDLTNKASMAFLQKHLGLQKDFDQWDPLVEGDDENLIPGSPFDAVTQVPAQQHSPGSQTQN
B6: Smoc2 (protein, UniProt Q8CD91 22-447, looked up)
SPARC-related modular …: QKFSALTFLRVDQDKDRDCSLDCPSSPQKPLCASDGRTFLSRCEFQRAKCKDPQLEIAHRGNCKDVSRCVAERKYTQEQARKEFQQVFIPECNDDGTYSQVQCHSYTGYCWCVTPNGRPISGTAVAHKTPRCPGSINEKVPQREGAGKADDAAAPALETQPQGDEEDIASRYPTLWTEQVKSRQNKTNKNSASSCDQEHQSALEEAKQPKNDNVVIPECAHGGLYKPVQCHPSTGYCWCVLVDTGRPIPGTSTRYEQPKCDNTARAHPAKARDLYKNRPLQGCPGAKKHEFLTSVLDALSTDMVHAVSDPSSSSGRLSEPDPSHTLEERVVHWYFKLLDKNSSGDIGKKEIKPFKRFLRKKSKPKKCVKKFVEYCDMNNDKSITVQELMGCLGVTREEGKANTRKRHTPRGNAESSSSNRQPRKQG
B7: Timp2 (protein, UniProt P25785 27-220, looked up)
Metalloproteinase inhibitor 2: CSCSPVHPQQAFCNADVVIRAKAVSEKEVDSGNDIYGNPIKRIQYEIKQIKMFKGPDKDIEFIYTAPSSAVCGVSLDVGGKKEYLIAGKAEGDGKMHITLCDFIVPWDTLSITQKKSLNHRYQMGCECKITRCPMIPCYISSPDECLWMDWVTEKSINGHQAKFFACIKRSDGSCAWYRGAAPPKQEFLDIEDP
B8: Timp3 (protein, UniProt P39876 24-211, looked up)
Metalloproteinase inhibitor 3: CTCSPSHPQDAFCNSDIVIRAKVVGKKLVKEGPFGTLVYTIKQMKMYRGFSKMPHVQYIHTEASESLCGLKLEVNKYQYLLTGRVYEGKMYTGLCNFVERWDHLTLSQRKGLNYRYHLGCNCKIKSCYYLPCFVTSKNECLWTDMLSNFGYPGYQSKHYACIRQKGGYCSWYRGWAPPDKSISNATDP
B9: Trem2 (protein, UniProt Q99NH8 19-227, looked up)
Triggering receptor expressed …: LNTTVLQGMAGQSLRVSCTYDALKHWGRRKAWCRQLGEEGPCQRVVSTHGVWLLAFLKKRNGSTVIADDTLAGTVTITLKNLQAGDAGLYQCQSLRGREAEVLQKVLVEVLEDPLDDQDAGDLWVPEESSSFEGAQVEHSTSRNQETSFPPTSILLLLACVLLSKFLAASILWAVARGRQKPGTPVVRGLDCGQDAGHQLQILTGPGGT
B10: A1bg (protein, UniProt Q19LI2 19-512, looked up)
Alpha-1B-glycoprotein: NTLMLDSGSEPKLWAEPQSLLEPWANLTLVCAVDLPTKVFELIQNGWFLSQVRLETQVLSYRFSLGAITSNNSGIYRCRCGVEPPVDIHLPALNKWTMLSNAVEVTGKEPLPRPLAHADPVDWITPGGLPVYVMCQVAMRGVTYLLRQEGVDGVQKPDVQHKGTAGFLIYKPGNYSCSYLTHAAGEPSEPSDIVTIKMYASQAPPTLCLMGNYLMIYPQKTYETLACKAPRNAAEFQLRQGGKVLKIHGFSPTRDAILYYVNLKELDNPGPFTCRYRMHKYMHVWSEDSKPVELMWSDETLQAPVLTAEPSSRDLEPGSTVQLRCTAPVSGLRFGLQRQGKPELVVVQMLNSSGTEAVFELHNISTIDSGNYSCIYMEQAPPFSGSSSSEPVELRVNGPPPKPRLEALWKSTVHLGQEAIFRCHGHVPRVSMELVREGFKTPFAVASTRSTSAYLKLLFVGPQHAGNYSCRYTALPPFTFESGISDPVEVIVEG
B11: Alcam (protein, UniProt Q61490 28-583, looked up)
CD166 antigen: WYTVNSAYGDTIVMPCRLDVPQNLMFGKWKYEKPDGSPVFIAFRSSTKKSVQYDDVPEYKDRLSLSENYTLSIANAKISDEKRFVCMLVTEDNVFEAPTLVKVFKQPSKPEIVNKAPFLETDQLKKLGDCISRDSYPDGNITWYRNGKVLQPVEGEVAILFKKEIDPGTQLYTVTSSLEYKTTRSDIQMPFTCSVTYYGPSGQKTIYSEQEIFDIYYPTEQVTIQVLPPKNAIKEGDNITLQCLGNGNPPPEEFMFYLPGQPEGIRSSNTYTLTDVRRNATGDYKCSLIDKRNMAASTTITVHYLDLSLNPSGEVTKQIGDTLPVSCTISASRNATVVWMKDNIRLRSSPSFSSLHYQDAGNYVCETALQEVEGLKKRESLTLIVEGKPQIKMTKKTDPSGLSKTIICHVEGFPKPAIHWTITGSGSVINQTEESPYINGRYYSKIIISPEENVTLTCTAENQLERTVNSLNVSAISIPEHDEADDISDENREKVNDQAKLIVGIVVGLLLAALVAGVVYWLYMKKSKTASKHVNKDLGNMEENKKLEENNHKTEA
B12: C1qa (protein, UniProt P98086 23-245, looked up)
Complement C1q subcomponent …: EDVCRAPNGKDGAPGNPGRPGRPGLKGERGEPGAAGIRTGIRGFKGDPGESGPPGKPGNVGLPGPSGPLGDSGPQGLKGVKGNPGNIRDQPRPAFSAIRQNPMTLGNVVIFDKVLTNQESPYQNHTGRFICAVPGFYYFNFQVISKWDLCLFIKSSSGGQPRDSLSFSNTNNKGLFQVLAGGTVLQLRRGDEVWIEKDPAKGRIYQGTEADSIFSGFLIFPSA

Tested on: Npc1-/- mouse liver
Assay: Liver gene expression microarray, Npc1-/- versus control mice (Affymetrix Mouse GeneChip 1.0 ST)
Details: 1 week of age, negative = lower in Npc1−/−

In order of rising “FC (fold-change of expression between Npc1−/− and control mice)” value:
1. B1  −1.49
2. B2  1.38

Same assay, conditions: 3 weeks of age, negative = lower in Npc1−/−

In order of rising “FC (fold-change of expression between Npc1−/− and control mice)” value:
1. B1  −1.70
2. B4  1.31
3. B6  1.32
4. B5  1.34
5. B3  1.36
6. B7  1.41
7. B8  1.48
8. B9  1.54
9. B2  1.56

Same assay, conditions: 5 weeks of age, negative = lower in Npc1−/−

In order of falling “FC (fold-change of expression between Npc1−/− and control mice)” value:
1. B5  1.91
2. B3  1.84
3. B9  1.82
4. B11  1.53
5. B7  1.52
6. B8  1.47
7. B2  1.46
8. B12  1.40
9. B4  1.35
10. B6  1.34
11. B1  −1.50
12. B10  −2.75

Same assay, conditions: 7 weeks of age, negative = lower in Npc1−/−

In order of falling “FC (fold-change of expression between Npc1−/− and control mice)” value:
1. B9  2.91
2. B7  2.80
3. B5  2.60
4. B3  2.21
5. B8  1.91
6. B11  1.67
7. B4  1.66
8. B6  1.40
9. B12  1.40
10. B2  1.34
11. B10  −3.97

Same assay, conditions: 11 weeks of age, negative = lower in Npc1−/−

In order of falling “FC (fold-change of expression between Npc1−/− and control mice)” value:
1. B5  5.07
2. B3  5.03
3. B7  3.85
4. B9  3.72
5. B8  2.49
6. B12  1.87
7. B4  1.85
8. B6  1.65
9. B11  1.59
10. B2  1.30
11. B1  −1.41
12. B10  −5.43

Same assay, conditions: head prints "weeks" (column between 7 weeks and 11 weeks), negative = lower in Npc1−/−

In order of falling “FC (fold-change of expression between Npc1−/− and control mice)” value:
1. B5  3.90
2. B9  3.77
3. B3  3.51
4. B7  2.64
5. B4  1.70
6. B11  1.70
7. B8  1.67
8. B12  1.59
9. B6  1.49
10. B1  −1.50
11. B10  −4.13

What was measured is the transcript of the gene that encodes the chain shown.
